B1: antibody 1254 (antibody, human IgG1, kappa, V domains shown)
VH: EVQLVESGGGLVKPGGSLKLSCAASGFAYSTYDMSWVRQTPEKRLEWVAYISSGGDAAYYPDTVKGRFTISRDNAKNTLYLQMSSLKSEDTAMYYCARSRYGNYGDAMDYWGQGTSVTVSS
VL: DVVMTQTPLSLPVSLGDQASISCRSSQSLVHSNGNTYLHWYLQKPGQSPKLLLYKVSNRFSGVPDRFSGSGSGTDFTLKISRVESEDLGVYFCSQNTHVYTFGGGTKLEIKR
notes: Chimeric IgG1 kappa; also called mAb 1254
B2: antibody 1229 (antibody, human IgG1, kappa, V domains shown)
VH: QVQLKESGPGLVAPSQSLSITCSVSGFSLTIYGVHWVRQPPGKGLEWLGVMWAGGNTDYNSALMSRLNISKDNSKSQVFLKVNSLQTDDTAMYYCTRDPDGYYVGWFFDVWGAGTTVTVSS
VL: DIVMTQSHKFMSTSVGDRVSITCKASQDVTNAVAWYQQKPGQSPKLLIYWASIRHTGVPDRFTGSRSGTDYTLTINSVQAEDLALYYCQQHYNTPLTFGAGTKLEIKR
notes: Chimeric IgG1 kappa
B3: antibody 1030 (antibody, human IgG1, kappa, V domains shown)
VH: EVQLVESGGGLVKPGGSLKLSCAASGFTFSSYALSWVRQTPERRLEWVASISGVGSTYFPDSVKGRFTMSRDNARNILYLQMSSLRSEDTAMYYCARGSDGYFYAMDYWGQGTSVTVSS
VL: DIVLTQSPASLAVSLGQRATISCRASKSVSTSGYSFMHWYQLKPGQPPKLLIYLASNLESGVPARFSGSGSGTDFTLNIHPVEEEDAATYYCQHSREFPLTFGGGTKLEIKR
notes: Chimeric IgG1 kappa
B4: antibody 1024 (antibody, human IgG1, kappa, V domains shown)
VH: QVQLQQPGAELVEPGGSVKLSCKASGYTFTSHWMHWVKQRPGQGLEWIGEINPSSGRNNYNEKFKSKATLTVDKSSSTAYMQFSSLTSEDSAVYYCVRYYGYDEAMDYWGQGTSVTVSS
VL: DIVMTQAAFSNPVTLGTSASISCRSSKSLLHSNGITYLYWYLQKPGQSPQLLIYQMSNLASGVPDRFSSSGSGTDFTLRISRVEAEDVGVYYCAQNLELPYTFGGGTKLEIKR
notes: Chimeric IgG1 kappa
B5: antibody 992 (antibody, human IgG1, kappa, V domains shown)
VH: EVQLQQPGSELVRPGASVKLSCKASGYTFTSYWMHWVKQRPGQGLEWIGNIYPGSRSTNYDEKFKSKATLTVDTSSSTAYMQLSSLTSEDSAVYYCTRNGDYYVSSGDAMDYWGQGTSVTVSS
VL: DIQMTQTTSSLSASLGDRVTISCRTSQDIGNYLNWYQQKPDGTVKLLIYYTSRLHSGVPSRFSGSGSGTDFSLTINNVEQEDVATYFCQHYNTVPPTFGGGTKLEIKR
notes: Chimeric mouse/human IgG1 kappa; the VL entry includes the human kappa constant region

Results on 5 molecules are retold here after patent publication US20110135636A1 (SYMPHOGEN A S, published 2011).

No constants are given. Whether binding was seen depends on the method and setting. Some entries that bind do so weakly or less than the wild type.

This assay deals with T1, EGFRvIII (deletion mutant EGFR) (human, UniProt P00533 25-645, limits assumed).
T1 construct: also called deltaEGFR; rhEGFRvIII
The assay is described as follows: EGFRvIII ELISA (Example 1). A general note: ELISA stands for enzyme-linked immunosorbent assay.
As for B1, the binding entry is listed as “binds”.
The result for B2 reads “binds”.
The result for B3 reads “binds”.
The result for B4 reads “binds”; that for B5, “binds”.
